Consider nine compounds from the supplement of paper PMC10727501.

The other results are listed elsewhere or left out. This data set is noisy: repeats of one test often differ as much as different tests do.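 Researchers measured free-swimming zebrafish larvae's O-bend response probability to dark flashes (naive: first five; training: remaining flashes of four 60-flash blocks; test: later 60-flash block) and OMR turning toward alternating leftward/rightward LED motion. Six treated larvae were compared to sixty 0.1% DMSO controls, with |SSMD|≥2 marking a hit.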

What all share (details): 10 µM; pre-incubation: 30-90 min
Assay [1] concerns Danio rerio larvae (5 dpf, TLF). Nature of the assay: OMR-Perf (SSMD vs DMSO vehicle); higher = higher than vehicle (e.g. higher dark-flash O-bend response probability, or better optomotor performance).
Assay [2] shares this test system. Nature of the assay: Prob-Test (SSMD vs DMSO vehicle); higher = higher than vehicle (e.g. higher dark-flash O-bend response probability, or better optomotor performance).
Assay [3] has the same test system. Nature of the assay: Prob-Naive (SSMD vs DMSO vehicle); higher = higher than vehicle (e.g. higher dark-flash O-bend response probability, or better optomotor performance).
For assay [4] the test system is unchanged. Briefly: Prob-Train (SSMD vs DMSO vehicle); higher = higher than vehicle (e.g. higher dark-flash O-bend response probability, or better optomotor performance).

The compound `CC1=C(/C=C/C(C)=C/C=C/C(C)=C/C(=O)O)C(C)(C)CCC1` [Tretinoin] came in with an OMR-Perf in assay [1] of 0.481. In addition, the Prob-Test in assay [2] is -0.62. This compound also showed a Prob-Naive in assay [3] of -0.386. In assay [4], this compound returned a Prob-Train of -1.08.
For `CCC(CC)n1ccc2c(C(=O)NCc3c(C)cc(C)[nH]c3=O)cc(C#N)cc21` the same measures were 0.237, -0.643, -0.0813 and -0.121.
For `Nc1ccn([C@@H]2O[C@H](CO)[C@@H](O)C2(F)F)c(=O)n1` [Gemcitabine] the same measures were 0.245, 0.723, -0.459 and 0.223.
For `O=C([O-])c1cc(/N=N/c2ccc(O)c(C(=O)[O-])c2)ccc1O.[Na+].[Na+]` [Olsalazine Sodium] the same measures were 0.0403, -0.209, 0.263 and -0.344.
In assay [1], `C[C@@H](Oc1cc(-n2cnc3ccc(CN4CCN(C)CC4)cc32)sc1C(N)=O)c1ccccc1C(F)(F)F` gave an OMR-Perf of -0.72. Also, the Prob-Test in assay [2] was -0.446. The Prob-Naive in assay [3] is -0.13. The compound further registered a Prob-Train in assay [4] of -0.765.
`COc1ccc(O)cc1` [Mequinol] gave an OMR-Perf in assay [1] of -0.471. The compound also came in with a Prob-Test in assay [2] of 0.461. For the same compound, in assay [3], the Prob-Naive is 0.585. In assay [4], the Prob-Train was found to be 0.224.
For `CNC(=O)c1c(F)cccc1Nc1nc(Nc2cc3c(cc2OC)CCN3C(=O)CN(C)C)nc2[nH]ccc12` the same measures were -0.232, 0.172, 0.515 and 0.239.
The compound `Cc1nccn1CC1CCc2c(c3ccccc3n2C)C1=O` (stereo unspecified) [Ondansetron (Zofran)] registered an OMR-Perf in assay [1] of -0.224. The compound also came in with a Prob-Test in assay [2] of 0.694. Moreover, in assay [3], the Prob-Naive stood at 0.42. In assay [4], this compound displayed a Prob-Train of 0.241.
As to `Cc1cc(N)c2ccccc2[n+]1CCCCCCCCCC[n+]1c(C)cc(N)c2ccccc21.[Cl-].[Cl-]` [Dequalinium chloride], the OMR-Perf in assay [1] worked out at 0.263. Further, the Prob-Test in assay [2] stood at 0.347. In assay [3], the Prob-Naive amounted to 0.457. Also, in assay [4], the Prob-Train turned out to be 0.896.
